Three substances from paper doi:10.1101/2024.06.05.597537 can be followed below.

Chains of the proteins cited; added tags and fusions are not shown. Lines headed by an entry give the natural chain unless they say otherwise; changes in a name come on top.
UniProt P19484, whole entry: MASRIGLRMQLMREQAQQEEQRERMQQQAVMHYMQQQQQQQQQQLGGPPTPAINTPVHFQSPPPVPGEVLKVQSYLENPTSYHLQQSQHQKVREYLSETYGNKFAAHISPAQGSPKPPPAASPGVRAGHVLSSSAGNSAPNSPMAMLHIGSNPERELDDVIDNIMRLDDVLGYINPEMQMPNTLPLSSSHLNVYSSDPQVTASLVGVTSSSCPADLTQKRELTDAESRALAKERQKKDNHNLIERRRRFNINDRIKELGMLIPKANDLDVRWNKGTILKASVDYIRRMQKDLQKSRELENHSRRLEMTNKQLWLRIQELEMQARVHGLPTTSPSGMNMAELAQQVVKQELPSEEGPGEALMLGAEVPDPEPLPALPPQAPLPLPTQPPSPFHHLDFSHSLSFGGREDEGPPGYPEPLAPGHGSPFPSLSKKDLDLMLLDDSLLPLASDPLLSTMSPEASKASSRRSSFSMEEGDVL
UniProt Q9NQU5, whole entry: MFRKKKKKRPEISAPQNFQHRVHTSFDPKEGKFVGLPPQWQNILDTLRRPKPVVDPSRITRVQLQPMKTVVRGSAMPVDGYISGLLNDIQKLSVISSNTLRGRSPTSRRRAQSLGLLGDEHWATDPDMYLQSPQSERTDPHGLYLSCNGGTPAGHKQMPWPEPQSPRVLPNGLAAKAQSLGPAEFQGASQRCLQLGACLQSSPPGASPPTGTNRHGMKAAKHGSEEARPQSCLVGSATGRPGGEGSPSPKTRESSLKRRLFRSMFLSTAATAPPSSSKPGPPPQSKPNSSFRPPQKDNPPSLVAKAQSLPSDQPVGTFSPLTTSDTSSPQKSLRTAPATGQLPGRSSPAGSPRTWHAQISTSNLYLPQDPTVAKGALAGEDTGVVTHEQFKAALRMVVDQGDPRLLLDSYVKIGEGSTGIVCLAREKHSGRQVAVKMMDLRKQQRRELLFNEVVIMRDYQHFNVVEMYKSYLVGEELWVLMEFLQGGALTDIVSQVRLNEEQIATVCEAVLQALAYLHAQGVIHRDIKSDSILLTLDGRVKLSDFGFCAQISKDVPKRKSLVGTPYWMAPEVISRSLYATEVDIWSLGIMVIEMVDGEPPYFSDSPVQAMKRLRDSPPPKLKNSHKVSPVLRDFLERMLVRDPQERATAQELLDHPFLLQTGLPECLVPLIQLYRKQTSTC

These are yes or no findings as the source states them, for the method shown. For some of these results: In cells and extracts the contact can be indirect. Some results given as binding are weak or reduced against the parent protein; the word gives no strength.

Assay [1] concerns the target GFP-TFEB WT (Transcription Factor EB) (human) (UniProt P19484). As to the kind of experiment: co-IP.
Assay [2] addresses GFP-TFEB S467A (human) (UniProt P19484). As to the kind of experiment: fluorescence cross-correlation spectroscopy.
For assay [3], the target named is GFP-TFEB WT (Transcription Factor EB) (human) (UniProt P19484). As to the kind of experiment: fluorescence cross-correlation spectroscopy.

Consider “Flag-PAK6 WT (from UniProt Q9NQU5 1-681) (enzyme)”, for which, in assay [1], the binding result is “binds”. On to “mCherry-tagged PAK6 S531N (constitutively active) (from UniProt Q9NQU5 1-681) (enzyme)”, for which the binding entry in assay [2] is given as “no binding”. With “mCherry-tagged PAK6 WT (p21 activated kinase 6) (from UniProt Q9NQU5 1-681) (enzyme)”, the figures for the binding result in assay [3] and in assay [2] were “binds” and “no binding”, respectively.
